{"source": "PubChem BioAssay AID1259415", "about": "(National Center for Advancing Translational Sciences (NCATS), 2018)", "note": "Among all 410,000 compounds or so, about 18,000 (4.4%) were called active. This list was built around the results that the source calls inconclusive (neither active nor inactive); the mix of calls is not that of the screen. Cut-off read from the data, not from the text of the source: active = activity change below about -60%; inconclusive = no clear call, values can overlap the other calls; inactive = above about -39%. % is set by controls: 0 for no effect and ±100 for the full control effect."}
{"test": "qHTS Assay for inhibitors of the human cytomegalovirus (HCMV)", "details": "HFF cells, HCMV-luciferase reporter, 72 h; at 57.5 µM; active compounds read low", "summary_of_the_method": "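Compounds were evaluated in HFFs infected with an HCMV luciferase reporter virus (MOI 1 PFU/cell). Luciferase in lysates collected 72 h post infection served as the replication measure.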"}
{"smiles": "S=C(NCCc1ccccc1)Nc1ccc(Br)cn1", "activity change, negative = inhibition": "active: -102%"}
{"smiles": "CCCn1cc(SCC(=O)Nc2ccc3c(c2)OCO3)c2ccccc21", "activity change, negative = inhibition": "active: -65.5%"}
{"smiles": "COc1ccc2nc(N3CCN(C(=O)c4ccc5ncsc5c4)CC3)sc2c1", "activity change, negative = inhibition": "inconclusive: -41.2%"}
{"smiles": "COCCN1CCn2c(nc3cc(NC(=O)NC4CCCCC4)ccc32)C1", "activity change, negative = inhibition": "inconclusive: -54.3%"}
{"smiles": "CN1CCC(N(C)CC(=O)Nc2ccc3c(c2)OC(F)(F)O3)CC1", "activity change, negative = inhibition": "inconclusive: -43.6%"}
{"smiles": "COc1ccc2nc3cc(Cl)ccc3c(Nc3cc(C(C)C)c(O)cc3C)c2c1", "activity change, negative = inhibition": "inconclusive: -42.4%"}
{"smiles": "CC(=O)c1ccc(S(=O)(=O)NCC2CCN(C(=O)C(=O)c3cccs3)CC2)cc1", "activity change, negative = inhibition": "inconclusive: -58.3%"}
{"smiles": "Nc1cc([N+](=O)[O-])ccc1Nc1ccc(O)cc1", "activity change, negative = inhibition": "inconclusive: -41.7%"}
{"smiles": "O=C(NCC1CCCO1)C1CC(=O)N(c2ccccc2)C1", "note": "(centres undefined)", "activity change, negative = inhibition": "inconclusive: -49%"}
{"smiles": "Cc1cc(=O)c2cc(Cl)ccc2[nH]1", "activity change, negative = inhibition": "active: -63.4%"}
{"smiles": "Cc1ccc(SCCC(=O)N/N=C/c2ccccc2O)cc1", "activity change, negative = inhibition": "active: -84.8%"}
{"smiles": "CCOC(=O)CC1COCCN1C(=O)c1cc(COc2ccc(F)cc2Cl)on1", "note": "(centres undefined)", "activity change, negative = inhibition": "inactive: 22%"}
{"smiles": "N=c1c(-c2nc3ccccc3[nH]2)cc(C(=O)c2ccco2)nn1-c1ccccc1", "activity change, negative = inhibition": "inconclusive: -48.3%"}
{"smiles": "O=C(CN1C(=O)CSc2cc(S(=O)(=O)N3CCCCCC3)ccc21)NCCc1ccccc1", "activity change, negative = inhibition": "inconclusive: -45.9%"}
{"smiles": "COc1cccc(-c2c(C(=O)N/N=C/c3sccc3C)nnn2-c2nonc2N)c1", "activity change, negative = inhibition": "inconclusive: -44.7%"}
{"smiles": "Cc1nnsc1-c1nnc(SCC(=O)c2ccc(F)cc2)n1C1CC1", "activity change, negative = inhibition": "inactive: -28.8%"}
{"smiles": "Cc1ccc(-n2ncc(C(=O)NCCCN3CCN(C)CC3)c2C2CCN(C(=O)OC(C)(C)C)CC2)cc1", "activity change, negative = inhibition": "inconclusive: 0%"}
{"smiles": "COc1ccccc1CNC(=O)C1CCCC1", "activity change, negative = inhibition": "inactive: -27.5%"}
{"smiles": "CC(=O)NS(=O)(=O)c1ccc(NC(=O)CC(C)c2ccccc2)cc1", "note": "(centres undefined)", "activity change, negative = inhibition": "inconclusive: -40.7%"}
{"smiles": "CCn1c(Cc2ccccc2)nnc1SCC(=O)N1CCCCC1", "activity change, negative = inhibition": "inactive: -28.1%"}
{"smiles": "COc1ccc(-c2cc(=O)oc3cc(OCC(=O)NCC4CCC(C(=O)O)CC4)ccc23)cc1", "note": "(centres undefined)", "activity change, negative = inhibition": "inconclusive: -53.9%"}
{"smiles": "O=[N+]([O-])c1ccc(Sc2ccccc2)nc1", "activity change, negative = inhibition": "inconclusive: -59.6%"}
{"smiles": "COc1ccc(C(=O)O/N=C(\\N)c2ccccc2)c(OC)c1", "activity change, negative = inhibition": "active: -77.7%"}
{"smiles": "ClC1=C(Cl)C(Cl)=C(Cl)C1=C/C=C/c1ccccc1", "activity change, negative = inhibition": "inconclusive: -53%"}
{"smiles": "N#CC1=C(N)OC2=C(CC/C2=C\\c2ccccc2Cl)C1c1ccccc1Cl", "note": "(centres undefined)", "activity change, negative = inhibition": "inconclusive: -54.5%"}
{"smiles": "CCOC(=O)c1ccc(S(=O)(=O)NCC(C)(C)N2CCOCC2)cc1", "activity change, negative = inhibition": "inconclusive: -49.9%"}
{"smiles": "O=C(N/N=C/c1cccs1)c1ccc(-n2cccc2)cc1", "activity change, negative = inhibition": "inconclusive: -54.2%"}
{"smiles": "O=c1cc(-c2ccc(O)cc2)oc2ccccc12", "activity change, negative = inhibition": "inactive: -1.46%"}
{"smiles": "COc1cc(NS(=O)(=O)c2cc3c(cc2C)n(C)c(=O)c(=O)n3C)cc(OC)c1", "activity change, negative = inhibition": "inactive: 17.9%"}
{"smiles": "O=S(=O)(c1ccc(Br)cc1)N1CCC(c2nc3ccccc3[nH]2)CC1", "activity change, negative = inhibition": "inconclusive: -41.5%"}
{"smiles": "CC1Sc2ccc(S(=O)(=O)CCC(=O)N3CCN(c4ccccc4)CC3)cc2NC1=O", "note": "(centres undefined)", "activity change, negative = inhibition": "inconclusive: -45.5%"}
{"smiles": "COc1cccc(C(=O)Nc2ccc(C(=O)OCc3cc(=O)n4cc(C)sc4n3)cc2)c1", "activity change, negative = inhibition": "inconclusive: -44%"}
{"smiles": "COc1ccc(OC)c(NC(=O)CN2C(=O)NC(C)(c3ccc4c(c3)OCCO4)C2=O)c1", "note": "(centres undefined)", "activity change, negative = inhibition": "inconclusive: -52.6%"}
{"smiles": "CN(Cc1ccccc1)C(=O)c1cn(C)c2ccc(S(=O)(=O)N3CCCC3)cc2c1=O", "activity change, negative = inhibition": "inconclusive: -41.3%"}
{"smiles": "COc1ccc(CCNC(=O)c2ccc(CSCc3ccc(C)cc3)o2)cc1OC", "activity change, negative = inhibition": "inconclusive: 0%"}
{"smiles": "CC1CN(Cc2c(O)ccc3c2oc(=O)c2ccccc23)CC(C)O1", "note": "(centres undefined)", "activity change, negative = inhibition": "inconclusive: -40.2%"}
{"smiles": "CCn1c(NCc2cc(OC)ccc2OC)nc2ccccc21", "activity change, negative = inhibition": "inactive: 25.7%"}
{"smiles": "COCc1cc(C)nc(OCC(=O)N/N=C/c2ccc(-c3cc([N+](=O)[O-])ccc3Cl)o2)c1C#N", "activity change, negative = inhibition": "inconclusive: -52.5%"}
{"smiles": "CCCN(CC(=O)Nc1ccccc1OC)C(=O)CCC(=O)c1ccc(OCC)cc1", "activity change, negative = inhibition": "inconclusive: -49.5%"}
{"smiles": "Cc1cc(C)c2nc(C(F)(F)F)nc(N3CCN(C(=O)c4ccco4)CC3)c2c1", "activity change, negative = inhibition": "inconclusive: -49.9%"}
{"smiles": "CC(C)Nc1ccc(C(CC(N)=O)NC(=O)Cc2ccc(Br)cc2)cc1[N+](=O)[O-]", "note": "(centres undefined)", "activity change, negative = inhibition": "inconclusive: -57.9%"}
{"smiles": "CCOc1ccc(S(=O)(=O)NCCc2csc3nc(-c4cccc(C)c4)nn23)cc1", "activity change, negative = inhibition": "inactive: -8.49%"}
{"smiles": "Fc1ccc(Nc2c(-c3c[nH]c4ccccc34)nc3ccccn23)cc1", "activity change, negative = inhibition": "inactive: 90.8%"}
{"smiles": "O=C(c1ccc(S(=O)(=O)N2CCCCC2)cc1)N(c1ccccn1)C1CCCCC1", "activity change, negative = inhibition": "inconclusive: -40%"}
{"smiles": "O=[N+]([O-])c1ccc(S(=O)(=O)CC(CN2CCOCC2)N2CCOCC2)cc1", "note": "(centres undefined)", "activity change, negative = inhibition": "active: -102%"}
{"smiles": "COc1ccccc1NS(=O)(=O)c1cc(NC(=O)Nc2ccc(Cl)cc2Cl)ccc1N1CCCCC1", "activity change, negative = inhibition": "active: -61.6%"}
{"smiles": "CN(Cc1ccc(Br)s1)C(=O)CNC(=O)c1ccc2c(c1)OCO2", "activity change, negative = inhibition": "inconclusive: -41.8%"}
{"smiles": "COc1ccc(-c2cc([C@H]3[C@@H]4C=CCC[C@@]4(C)C(=O)N3Cc3ccccc3)ccc2F)cc1", "activity change, negative = inhibition": "inconclusive: -45.7%"}
{"smiles": "Cc1cccc(N(C(=O)Cn2nnc(-c3ccccc3F)n2)C(C(=O)NC(C)(C)C)c2ccncc2)c1", "note": "(centres undefined)", "activity change, negative = inhibition": "inconclusive: -43.5%"}
{"smiles": "CCn1c(=O)c(=O)[nH]c2cc(C(=O)N(C)Cc3ccc(OC)c(F)c3)ccc21", "activity change, negative = inhibition": "inconclusive: -59.8%"}
{"smiles": "CCOc1ccc(/C=N/NC(=O)c2ccc(O)cc2)cc1CN1CC2CC(C1)c1cccc(=O)n1C2", "note": "(centres undefined)", "activity change, negative = inhibition": "inconclusive: -58.5%"}
{"smiles": "COc1ccc(C(=O)C2CCCN(Cc3cnc(N4CCOCC4)s3)C2)c(OC)c1", "note": "(centres undefined)", "activity change, negative = inhibition": "inconclusive: -45.6%"}
{"smiles": "COC(=O)COc1ccc(S(=O)(=O)NCCC2=CCCCC2)cc1", "activity change, negative = inhibition": "inactive: -7.26%"}
{"smiles": "Cc1cccc(CSC(Nc2ccc(F)cc2)=C(C#N)C#N)c1", "activity change, negative = inhibition": "active: -102%"}
